The supplement of paper PMC10626197

Tested on: MCF7
Test: cell viability relative to DMSO control (raw); higher = more viable cells
Conditions: exposure time 72 h
Method: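 MCF7 cells, 1000 cells/well in 384-well plates, treated with 6x6 dose matrices of drug pairs (1:3 serial dilutions, DMSO as lowest dose) for 72 h at 37 °C. Viability read by CellTiter-Glo luminescence, 3 biological replicates. Normalised viability sets 0% at the highest doxorubicin dose and 100% at the 0,0 µM control per combination.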

CC(=O)O[C@H]1CC[C@@]2(C)C(=CC[C@@H]3[C@@H]2CC[C@]2(C)C(c4cccnc4)=CC[C@@H]32)C1 [Abiraterone acetate] + CN(C)C[C@@H]1CCn2cc(c3ccccc32)C2=C(C(=O)NC2=O)c2cn(c3ccccc23)CCO1 [Ruboxistaurin (LY333531 HCl)]
cell viability [%]
Conditions	drug 2 concentration 0 µM	drug 2 concentration 0.123457 µM	drug 2 concentration 0.37037 µM	drug 2 concentration 1.11111 µM	drug 2 concentration 3.33333 µM	drug 2 concentration 10 µM
drug 1 concentration 0.246914 µM	90.9	91.1	103	99.9	85.6	19.1
drug 1 concentration 0.740741 µM	95.9	97.8	102	97.4	84.6	27
drug 1 concentration 2.22222 µM	98.2	108	106	112	87.9	24.1
drug 1 concentration 6.66667 µM	85.8	90	88.6	89.1	79.2	12
drug 1 concentration 20 µM	54.6	56.6	57	50.9	56	13.5

C[C@@H](Oc1cc(-c2cnn(C3CCNCC3)c2)cnc1N)c1c(Cl)ccc(F)c1Cl [Crizotinib] + CC(C)C[C@@H](C(=O)N[C@H](C(=O)OC1CCCC1)c1ccccc1)[C@H](O)C(=O)NO [Tosedostat]
cell viability [%]
Conditions	drug 2 concentration 0 µM	drug 2 concentration 0.246914 µM	drug 2 concentration 0.740741 µM	drug 2 concentration 2.22222 µM	drug 2 concentration 6.66667 µM	drug 2 concentration 20 µM
drug 1 concentration 0.0987654 µM	110	101	92.6	79.9	78	64.8
drug 1 concentration 0.296296 µM	118	102	95	91.7	82.4	69.5
drug 1 concentration 0.888889 µM	107.4	86.7	85.9	77.5	70.7	58.6
drug 1 concentration 2.66667 µM	72.9	61.5	63.8	61.1	53.8	47.2
drug 1 concentration 8 µM	25.5	21	20	17.7	16.2	7.84

CO[C@H]1C(=O)[C@]2(C)[C@@H](OC)C[C@H]3OC[C@@]3(OC(C)=O)[C@H]2[C@H](OC(=O)c2ccccc2)[C@]2(O)C[C@H](OC(=O)[C@H](O)[C@@H](NC(=O)OC(C)(C)C)c3ccccc3)C(C)=C1C2(C)C [Cabazitaxel] + CN(C)C1CCN(C(=O)c2ccc(NC(=O)Nc3ccc(-c4nc(N5CCOCC5)nc(N5CCOCC5)n4)cc3)cc2)CC1 [Gedatolisib (PF-05212384; PKI-587)]
cell viability [%]
Conditions	drug 2 concentration 0 µM	drug 2 concentration 0.0148148 µM	drug 2 concentration 0.0444444 µM	drug 2 concentration 0.133333 µM	drug 2 concentration 0.4 µM	drug 2 concentration 1.2 µM
drug 1 concentration 0.0184691 µM	96.7	77.5	59.4	40.9	34.4	29.9
drug 1 concentration 0.0554074 µM	99.9	74.8	54.7	34.1	29.1	28.3
drug 1 concentration 0.166222 µM	94.4	77.2	58.3	38.7	31.6	26.3
drug 1 concentration 0.498667 µM	93.4	66.1	47.3	32	25.6	25.9
drug 1 concentration 1.496 µM	95.5	70.6	51.2	34.9	30.2	25.8

Cc1ccc(NC(=O)c2ccc(CN3CCN(C)CC3)cc2)cc1Nc1nccc(-c2cccnc2)n1 [Imatinib] + Cc1ncc(NC(=O)c2ccc(CN3CCN(C)CC3)c(C(F)(F)F)c2)cc1Nc1nccc(-c2cccnc2)n1 [Flumatinib (mesylate)]
cell viability [%]
Conditions	drug 2 concentration 0 µM	drug 2 concentration 0.617284 µM	drug 2 concentration 1.85185 µM	drug 2 concentration 5.55556 µM	drug 2 concentration 16.6667 µM	drug 2 concentration 50 µM
drug 1 concentration 0.123457 µM	88.4	93.9	86.7	90.9	1	0.2
drug 1 concentration 0.37037 µM	96	99.6	92.2	97.7	0.666	0.189
drug 1 concentration 1.11111 µM	87	88.3	89.7	98.8	1.03	0.149
drug 1 concentration 3.33333 µM	92	96.5	94	91	30.4	0.237
drug 1 concentration 10 µM	88.9	94	86.9	102	1.34	0.35

Cc1ccc(NC(=O)c2ccc(CN3CCN(C)CC3)cc2)cc1Nc1nccc(-c2cccnc2)n1 [Imatinib] + COc1cc(Nc2ncc3c(n2)-c2ccc(Cl)cc2C(c2c(F)cccc2OC)=NC3)ccc1C(=O)O [Alisertib]
cell viability [%]
Conditions	drug 2 concentration 0 µM	drug 2 concentration 0.0617284 µM	drug 2 concentration 0.185185 µM	drug 2 concentration 0.555556 µM	drug 2 concentration 1.66667 µM	drug 2 concentration 5 µM
drug 1 concentration 0.123457 µM	86	81.7	76.1	73.5	75.7	69.9
drug 1 concentration 0.37037 µM	88.6	77.9	80.2	82.8	81.3	79.9
drug 1 concentration 1.11111 µM	75.2	81.9	81.9	73.6	78.2	73.5
drug 1 concentration 3.33333 µM	91.9	95	90	85.4	84	80.5
drug 1 concentration 10 µM	102	95.7	83.6	82.2	84.9	71.2

C#Cc1cccc(Nc2ncnc3cc(OCCOC)c(OCCOC)cc23)c1 [Erlotinib] + COc1cc2nc(N3CCN(C(=O)C4CCCO4)CC3)nc(N)c2cc1OC [Terazosin (hydrochloride dihydrate)]
cell viability [%]
Conditions	drug 2 concentration 0 µM	drug 2 concentration 0.0308642 µM	drug 2 concentration 0.0925926 µM	drug 2 concentration 0.277778 µM	drug 2 concentration 0.833333 µM	drug 2 concentration 2.5 µM
drug 1 concentration 0.123457 µM	104	99.1	106	104	105	99.2
drug 1 concentration 0.37037 µM	108	103	107	103	104	107
drug 1 concentration 1.11111 µM	104	106	104	104	99.7	96.2
drug 1 concentration 3.33333 µM	111	111	108	108	112	107
drug 1 concentration 10 µM	87.6	86.2	100	94.1	90.3	95.6

CO[C@H]1C(=O)[C@]2(C)[C@@H](OC)C[C@H]3OC[C@@]3(OC(C)=O)[C@H]2[C@H](OC(=O)c2ccccc2)[C@]2(O)C[C@H](OC(=O)[C@H](O)[C@@H](NC(=O)OC(C)(C)C)c3ccccc3)C(C)=C1C2(C)C [Cabazitaxel] + C=CC(=O)Nc1cccc(Nc2nc(Nc3ccc(OCCOC)cc3)ncc2F)c1 [Spebrutinib]
cell viability [%]
Conditions	drug 2 concentration 0 µM	drug 2 concentration 0.37037 µM	drug 2 concentration 1.11111 µM	drug 2 concentration 3.33333 µM	drug 2 concentration 10 µM	drug 2 concentration 30 µM
drug 1 concentration 0.0184691 µM	103	97.5	99.2	77.1	61.9	5.51
drug 1 concentration 0.0554074 µM	99.7	95.8	89.8	79.2	62.2	10.2
drug 1 concentration 0.166222 µM	104	105	103	78	64.8	10.2
drug 1 concentration 0.498667 µM	93.6	100	94.7	83	50.7	7.55
drug 1 concentration 1.496 µM	107	106	106	85.7	65	7.03

C#Cc1cccc(Nc2ncnc3cc(OCCOC)c(OCCOC)cc23)c1 [Erlotinib] + C=C1/C(=C\C=C2/CCC[C@]3(C)[C@@H]([C@H](C)CCCC(C)C)CC[C@@H]23)C[C@@H](O)C[C@@H]1O [Alfacalcidol]
cell viability [%]
Conditions	drug 2 concentration 0 µM	drug 2 concentration 0.617284 µM	drug 2 concentration 1.85185 µM	drug 2 concentration 5.55556 µM	drug 2 concentration 16.6667 µM	drug 2 concentration 50 µM
drug 1 concentration 0.123457 µM	94.1	94.3	93.5	89.3	75.4	6.85
drug 1 concentration 0.37037 µM	93.9	91.8	91.8	84.7	76.3	6.76
drug 1 concentration 1.11111 µM	96.1	96.2	93.9	94	80.5	6.28
drug 1 concentration 3.33333 µM	91.3	88.5	87.9	81.2	65.8	7.39
drug 1 concentration 10 µM	84.9	79.7	79.1	71.4	56.7	0.97

CO[C@H]1C(=O)[C@]2(C)[C@@H](OC)C[C@H]3OC[C@@]3(OC(C)=O)[C@H]2[C@H](OC(=O)c2ccccc2)[C@]2(O)C[C@H](OC(=O)[C@H](O)[C@@H](NC(=O)OC(C)(C)C)c3ccccc3)C(C)=C1C2(C)C [Cabazitaxel] + COc1cc2c(Oc3ccc(NC(=O)C4(C(=O)Nc5ccc(F)cc5)CC4)cc3F)ccnc2cc1OCCCN1CCOCC1 [Foretinib]
cell viability [%]
Conditions	drug 2 concentration 0 µM	drug 2 concentration 0.348765 µM	drug 2 concentration 1.0463 µM	drug 2 concentration 3.13889 µM	drug 2 concentration 9.41667 µM	drug 2 concentration 28.25 µM
drug 1 concentration 0.0184691 µM	103	101	92	53.8	13.9	0.954
drug 1 concentration 0.0554074 µM	111	109	86.3	57.9	12.9	1.3
drug 1 concentration 0.166222 µM	102	100	94.6	57.6	12.4	1.33
drug 1 concentration 0.498667 µM	114	112	95.5	56.8	14.6	1.17
drug 1 concentration 1.496 µM	105	110	86.6	55.9	6.19	0.784

Cc1ccc(Nc2nccc(N(C)c3ccc4c(C)n(C)nc4c3)n2)cc1S(N)(=O)=O [Pazopanib] + C=C1/C(=C\C=C2/CCC[C@]3(C)[C@@H]([C@H](C)CCCC(C)C)CC[C@@H]23)C[C@@H](O)C[C@@H]1O [Alfacalcidol]
cell viability [%]
Conditions	drug 2 concentration 0 µM	drug 2 concentration 0.617284 µM	drug 2 concentration 1.85185 µM	drug 2 concentration 5.55556 µM	drug 2 concentration 16.6667 µM	drug 2 concentration 50 µM
drug 1 concentration 0.617284 µM	99.8	88.8	95.5	93.5	85.3	9.41
drug 1 concentration 1.85185 µM	94.3	93.6	95.6	87.7	74.6	29.1
drug 1 concentration 5.55556 µM	89.3	77.9	82.2	76.9	67.2	7.47
drug 1 concentration 16.6667 µM	60.4	57.5	55.1	56.5	46.3	0.743
drug 1 concentration 50 µM	41.8	40.9	39.4	28.1	9.2	0.708

Cc1ccc(Nc2nccc(N(C)c3ccc4c(C)n(C)nc4c3)n2)cc1S(N)(=O)=O [Pazopanib] + CN(C)CCCN1c2ccccc2CCc2ccc(Cl)cc21 [Clomipramine (hydrochloride)]
cell viability [%]
Conditions	drug 2 concentration 0 µM	drug 2 concentration 0.123457 µM	drug 2 concentration 0.37037 µM	drug 2 concentration 1.11111 µM	drug 2 concentration 3.33333 µM	drug 2 concentration 10 µM
drug 1 concentration 0.617284 µM	96.6	82	80.8	82.2	83.1	75.2
drug 1 concentration 1.85185 µM	78.6	80.8	81.3	80.3	78.5	68.9
drug 1 concentration 5.55556 µM	83	76.2	77.3	82.7	72.7	66.2
drug 1 concentration 16.6667 µM	51	49.2	46.7	45.9	45.5	21.7
drug 1 concentration 50 µM	54.1	48.8	49.2	42.6	41.6	12.1

Structures can show the parent of a compound that is named as a salt. Some well-known active drugs show little effect in this data set, so a weak value is uncertain.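 The breast cancer cell line MCF7 was treated with drug pairs over a dose grid. Each plate included DMSO-only wells as the untreated reference and a doxorubicin series as the total-kill control. These viability readings have no hit threshold applied.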
